Test results reported in paper PMC10264389.
These are yes or no findings as the source states them, for the method shown. Binding seen in cells or lysates may run through a third protein. Here binding means that the protein was enriched with, or labelled near, the bait; the list need not be complete. A no says only that the protein was not detected with the bait. For some of these results: Where a sequence is shown, tags or fusion partners need not be part of it.

Sequences of proteins named here, by UniProt entry; tags and fusion partners are left off. A change or cut given only in a name is not applied to a line headed by its entry.
UniProt Q9H1E5: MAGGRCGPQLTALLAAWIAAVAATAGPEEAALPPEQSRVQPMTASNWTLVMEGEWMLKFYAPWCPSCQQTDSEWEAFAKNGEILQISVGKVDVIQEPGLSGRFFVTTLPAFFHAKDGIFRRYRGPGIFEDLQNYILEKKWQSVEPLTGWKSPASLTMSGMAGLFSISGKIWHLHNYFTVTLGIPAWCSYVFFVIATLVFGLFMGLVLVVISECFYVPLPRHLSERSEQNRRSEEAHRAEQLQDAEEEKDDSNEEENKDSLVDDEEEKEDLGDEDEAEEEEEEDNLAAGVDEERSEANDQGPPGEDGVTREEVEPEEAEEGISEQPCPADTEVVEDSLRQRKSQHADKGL
UniProt Q96JJ7: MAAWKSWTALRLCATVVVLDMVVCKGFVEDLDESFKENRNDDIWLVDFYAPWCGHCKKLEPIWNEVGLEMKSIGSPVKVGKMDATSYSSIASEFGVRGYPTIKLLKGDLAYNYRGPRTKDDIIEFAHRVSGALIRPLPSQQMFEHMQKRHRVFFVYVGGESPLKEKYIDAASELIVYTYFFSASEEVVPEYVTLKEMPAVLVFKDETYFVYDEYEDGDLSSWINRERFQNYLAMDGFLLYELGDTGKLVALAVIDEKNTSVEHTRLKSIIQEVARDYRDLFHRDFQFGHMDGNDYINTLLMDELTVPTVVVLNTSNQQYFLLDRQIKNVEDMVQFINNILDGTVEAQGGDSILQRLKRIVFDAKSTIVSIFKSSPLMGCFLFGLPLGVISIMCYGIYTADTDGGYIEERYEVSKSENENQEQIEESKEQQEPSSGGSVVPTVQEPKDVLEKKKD
UniProt O94901: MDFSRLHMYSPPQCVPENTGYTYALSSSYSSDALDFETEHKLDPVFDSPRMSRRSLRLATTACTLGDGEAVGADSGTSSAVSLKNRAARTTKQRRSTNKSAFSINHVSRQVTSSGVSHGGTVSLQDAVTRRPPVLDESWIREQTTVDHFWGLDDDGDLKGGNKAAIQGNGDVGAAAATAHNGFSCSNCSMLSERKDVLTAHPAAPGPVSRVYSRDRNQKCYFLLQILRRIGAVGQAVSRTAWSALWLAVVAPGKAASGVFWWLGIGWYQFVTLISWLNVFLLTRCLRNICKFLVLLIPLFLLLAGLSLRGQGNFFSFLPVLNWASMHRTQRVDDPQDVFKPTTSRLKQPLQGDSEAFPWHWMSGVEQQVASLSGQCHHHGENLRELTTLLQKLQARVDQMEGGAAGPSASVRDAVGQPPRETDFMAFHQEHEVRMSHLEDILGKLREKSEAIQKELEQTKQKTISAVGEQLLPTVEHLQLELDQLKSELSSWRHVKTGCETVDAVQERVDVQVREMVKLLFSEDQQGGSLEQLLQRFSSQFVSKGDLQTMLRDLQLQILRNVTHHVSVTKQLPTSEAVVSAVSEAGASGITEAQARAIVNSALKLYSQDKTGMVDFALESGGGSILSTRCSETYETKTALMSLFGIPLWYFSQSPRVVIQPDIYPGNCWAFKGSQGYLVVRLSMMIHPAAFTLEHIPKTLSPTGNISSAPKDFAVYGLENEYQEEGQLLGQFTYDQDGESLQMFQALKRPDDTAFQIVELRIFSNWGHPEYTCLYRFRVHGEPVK

Columns and labels:
Assay in all cases: affinity purification with mass spectrometry; V5-tagged trapping TMX proteins expressed in HEK293; lysis in RIPA buffer with 20 mM NEM; post-nuclear supernatant double immunoprecipitated with anti-V5 beads; non-reduced and reduced samples run on gels, lanes of the trapping variants cut from the loading point to the 50 kDa marker; LC-MS/MS of proteins trapped in mixed disulfides
[1] = target: TMX4_(C67A)-V5 (UniProt Q9H1E5)
[2] = target: TMX3_(C56A)-V5 (UniProt Q96JJ7)
[3] = target: T1, TMX5-V5 (UniProt Q96J42)
T1 sequence: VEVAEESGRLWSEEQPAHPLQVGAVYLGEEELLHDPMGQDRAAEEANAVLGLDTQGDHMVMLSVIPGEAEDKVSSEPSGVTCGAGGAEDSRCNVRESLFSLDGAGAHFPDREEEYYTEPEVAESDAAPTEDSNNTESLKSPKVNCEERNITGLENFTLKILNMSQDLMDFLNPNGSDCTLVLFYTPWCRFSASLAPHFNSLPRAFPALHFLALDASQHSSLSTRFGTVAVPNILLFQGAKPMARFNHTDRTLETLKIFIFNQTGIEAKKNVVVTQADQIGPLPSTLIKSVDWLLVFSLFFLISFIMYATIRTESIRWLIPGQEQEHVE

Substance	binding [1]	binding [2]	binding [3]
NESPRIN1 (from UniProt Q8NF91 1-8797)	binds	no binding	no binding
NESPRIN2 (SYNE2) (from UniProt Q8WXH0 1-6885)	binds	no binding	no binding
SUN1 (endogenous) (from UniProt O94901 1-785)	no binding	–	–
